The values that follow come from patent US8637550B2, “Heteroaryl diamide compounds useful as MMP-13 inhibitors” (Boehringer Ingelheim International GmbH, priority 2008, dated 2014).

For this test, the target named is MMP-13 (Homo sapiens, UniProt P45452). The test is described as follows: EnzoLyte 520 Generic MMP Assay Kit, 5-FAM/QXL520 FRET peptide substrate. The conditions noted are these: read-out: MMP-13 IC50. Format: biochemical.

SMILES strings stand for the structures. pIC50: −log10 of the molar value. The match of structure and compound is tentative.

Regarding `CNC(=O)[C@@H](NC(=O)c1ccc(-c2cccc(CNC(=O)OCCOC)c2)o1)C1CCCCC1`, the pIC50 was 6.40.
